Values joined by “and” are separate entries in the source; they are usually repeats but may differ in a detail not shown here. Identical values can stand only once.
Tests used:
[1] = tested on: C57BL/6 mice; test: Indirect calorimetry and exercise endurance under stepwise treadmill running; assay type: in vivo, mouse; details: exercise tolerance test, 30 mg/kg, individual mice
Method: The mice were acclimatized to the treadmill by allowing them to run at 10 m min^−1 for 10 min on the day before the test. On the day of the test, the mice received oral administration of 30 mg kg^−1 of DS20060511 or vehicle 15 min before they were made to run. The treadmill was started at a velocity of 10 m min^−1, with the speed increased stepwise by 2 m min^−1 every 3 min, to assess the exercise endurance capacity as described previously. Measurements of the oxygen consumption (VO2) and exhaled carbon dioxide (VCO2) under treadmill running were conducted with the ARCO-2000 magnetic-type mass spectrometric calorimeter (ARCO System, Kashiwa, Japan) connected to the treadmill chamber (MB-2000, ARCO System). The RER was calculated as the VCO2/VO2 ratio and the substrate utilization rates were calculated using Frayn’s formula[51]: rate of glucose oxidation = 4.585VCO2 − 3.226VO2; rate of fat oxidation = 1.695VO2 − 1.701VCO2. The exercise endurance capacity under treadmill running was determined by measuring the time from the start to the time until the mice ceased to run because of exhaustion, which was defined as remaining on the shocker plate for more than 10 sec. Immediately after the exercise, the blood glucose and lactate levels were measured using Glutest Every and Lactate Pro2 (ARKRAY, Kyoto, Japan), respectively, in blood samples collected from the tail vein.

[2] = tested on: db/db mice; test: Repeated (28-day) DS20060511 treatment of db/db mice; assay type: in vivo, mouse; details: 10 mg/kg
Method: db/db mice were acclimatized to a 6 h restricted feeding pattern from 10 am to 4 pm prior to the start of the experiment. For 28 days from 6 weeks of age, the mice received oral administration of 10 mg kg^−^1 of DS20060511 or vehicle once a day, 15 min prior to their feeding. On day 1 and day 28, the blood glucose levels were measured between 10 am to 4 pm. Blood glucose levels were measured using Glutest Every in blood samples collected from the tail vein. Daily food intake was monitored throughout the study, and the body weight, blood glucose, and plasma insulin were measured on day 1 and day 28. The hemoglobin A1c (HbA1c) level was also measured with a HLC-723G8 Automated Glycohemoglobin Analyzer on day 1 and day 28 (Tosoh, Tokyo, Japan). The triceps surae muscle (skeletal muscle), heart, epididymal WAT, and liver were excised immediately after euthanasia, and the tissue weights were measured on day 29. The glycogen contents of the muscle, heart, and liver were measured as described previously,[52] with some modifications. In brief, each tissue sample (50–100 mg) was weighed and boiled in 0.75 mL of 8 M KOH. After cooling, 0.25 mL of 1 M Na2SO4, followed by 2 mL of 99.5% ethanol, was added to precipitate the glycogen. The samples were centrifuged and the glycogen precipitates were dissolved in distilled water. Glycogen was degraded to glucose by treatment with amyloglucosidase (Sigma–Aldrich) at 55 °C for 60 min, and the glucose concentration was determined with Glucose CII Test Wako (FUJIFILM Wako Pure Chemical).

Question: What does the source list for `COc1ccc2c(C)c(C(=O)O)ccc2c1C1C2=C(CC(C)(C)CC2=O)OC2=C1C(=O)CC(C)(C)C2` [DS20060511]?
Answer: Blood lactate [1]: 6.9 nmol/L and 6.5 nmol/L and 5.9 nmol/L and 6.7 nmol/L and 5.7 nmol/L and 7.5 nmol/L and 9.9 nmol/L; Time until exhaustion [1]: 47 min and 41 min and 50 min and 42 min and 44 min (2×) and 34 min; Food intake (g) Accumulated ([2]; accumulated): 674.8 g; Food intake (g) Average ([2]; average): 4.02 g; Glycogen (mg/g tissue) Heart ([2]; heart, individual animals): 0.31 mg/g tissue and 0.62 mg/g tissue and 0.11 mg/g tissue and 0.14 mg/g tissue and 0.08 mg/g tissue and 0.09 mg/g tissue; Glycogen (mg/g tissue) Liver ([2]; liver, individual animals): 1.51 mg/g tissue and 1.75 mg/g tissue and 1.68 mg/g tissue and 1.59 mg/g tissue and 1.18 mg/g tissue and 1.74 mg/g tissue; Glycogen (mg/g tissue) Muscle ([2]; muscle, individual animals): 0.30 mg/g tissue and 0.93 mg/g tissue and 0.60 mg/g tissue and 0.75 mg/g tissue and 0.88 mg/g tissue

— paper PMC8379256, “A xanthene derivative, DS20060511, attenuates glucose intolerance by inducing skeletal muscle-specific GLUT4 translocation in mice” (Communications Biology, 2021)
